No constants are given. Whether binding was seen depends on the method and setting. In cells and extracts the contact can be indirect. Some binding calls cover weakened binding; strength is not graded here.
Assays:
[1] = target: Flag-tagged TMEM106B T185 variant (transmembrane protein 106B) (human) (UniProt Q9NUM4); experiment: co-IP; HEK293T cells transfected with flag-tagged TMEM106B variants (alone, or with CHMP2B^Intron5-cMyc); lysis in 50 mM Tris-HCl pH 7.5, 150 mM NaCl, 1 % NP40, 0.5 % sodium deoxycholate; anti-FLAG antibody overnight at 4 °C, Protein G agarose; blots with anti-CHMP2B, anti-cMyc or anti-flag
[2] = target: Flag-tagged TMEM106B S185 variant (transmembrane protein 106B) (human) (UniProt Q9NUM4); experiment: as above

Amino acid sequences for entries named in this document (tags omitted). A change or cut given only in a name is not applied to a line headed by its entry. Chains listed by the source or under a name are the forms on record and can include a tag or linker.
UniProt Q9NUM4: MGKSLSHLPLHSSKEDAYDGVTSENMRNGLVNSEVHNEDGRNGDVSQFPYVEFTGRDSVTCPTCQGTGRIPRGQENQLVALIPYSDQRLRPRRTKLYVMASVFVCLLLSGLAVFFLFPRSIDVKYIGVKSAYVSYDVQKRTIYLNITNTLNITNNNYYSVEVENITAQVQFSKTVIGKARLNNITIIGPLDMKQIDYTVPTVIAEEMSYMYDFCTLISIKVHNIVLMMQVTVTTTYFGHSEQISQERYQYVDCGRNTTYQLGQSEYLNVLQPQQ
Flag-tagged TMEM106B S185 variant (transmembrane protein 106B) (Q9NUM4, form named): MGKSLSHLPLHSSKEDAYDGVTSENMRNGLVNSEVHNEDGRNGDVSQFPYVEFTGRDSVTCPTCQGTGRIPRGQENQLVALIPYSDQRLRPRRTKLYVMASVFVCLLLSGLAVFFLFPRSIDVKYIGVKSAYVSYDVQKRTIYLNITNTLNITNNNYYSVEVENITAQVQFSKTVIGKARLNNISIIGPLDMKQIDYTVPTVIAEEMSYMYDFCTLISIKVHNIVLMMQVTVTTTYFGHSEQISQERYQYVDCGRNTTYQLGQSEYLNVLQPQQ
UniProt Q9UQN3: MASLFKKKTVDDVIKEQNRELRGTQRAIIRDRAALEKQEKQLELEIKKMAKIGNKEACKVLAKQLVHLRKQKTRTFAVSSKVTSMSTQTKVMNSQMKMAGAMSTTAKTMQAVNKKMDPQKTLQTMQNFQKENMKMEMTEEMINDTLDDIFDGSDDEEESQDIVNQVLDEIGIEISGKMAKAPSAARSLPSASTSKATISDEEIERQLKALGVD

binding [1]: binds
binding [2]: binds
Substance: endogenous charged multivesicular body protein 2B (CHMP2B) (from UniProt Q9UQN3 1-213)
